These are yes or no findings as the source states them, for the method shown. Some entries that bind do so weakly or less than the wild type.
Target: T1, MTERF4 (human) (UniProt Q7Z6M4)
T1 sequence: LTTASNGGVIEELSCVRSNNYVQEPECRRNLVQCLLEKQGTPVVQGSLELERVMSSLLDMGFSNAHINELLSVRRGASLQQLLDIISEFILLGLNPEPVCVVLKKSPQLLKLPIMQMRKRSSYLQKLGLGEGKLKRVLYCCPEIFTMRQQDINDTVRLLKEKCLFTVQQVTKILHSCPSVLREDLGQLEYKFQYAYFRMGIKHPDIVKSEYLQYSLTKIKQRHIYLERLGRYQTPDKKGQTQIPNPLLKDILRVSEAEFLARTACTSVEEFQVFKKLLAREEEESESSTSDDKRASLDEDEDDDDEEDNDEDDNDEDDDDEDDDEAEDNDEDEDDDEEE
Test: cryo-EM structure; native mtLSU assembly intermediates purified from Gtpbp6-/- HEK293 cells (dataset 1; the same two states seen again in dataset 2); reconstructions at 2.2 and 2.5 Å

By UniProt entry, the sequences of proteins in these tests, tags left out. Residues count along the entry.
UniProt Q96CB9, residues 26-384: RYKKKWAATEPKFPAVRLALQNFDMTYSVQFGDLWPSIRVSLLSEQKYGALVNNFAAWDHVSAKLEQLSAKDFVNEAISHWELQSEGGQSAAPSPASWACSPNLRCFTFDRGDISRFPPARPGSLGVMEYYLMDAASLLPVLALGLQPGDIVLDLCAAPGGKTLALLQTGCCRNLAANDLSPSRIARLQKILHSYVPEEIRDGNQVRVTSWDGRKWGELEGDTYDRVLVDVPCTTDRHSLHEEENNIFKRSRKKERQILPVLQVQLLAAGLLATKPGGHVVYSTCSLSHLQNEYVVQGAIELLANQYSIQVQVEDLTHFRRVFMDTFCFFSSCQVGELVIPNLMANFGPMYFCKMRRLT

- binding: binds
Substance: NSUN4 (from UniProt Q96CB9 26-384) (enzyme)
